These are yes or no findings as the source states them, for the method shown. Some binding calls cover weakened binding; strength is not graded here. Sequences can lack the tags named with a protein.

The target in this assay is T1, E. coli DsbA-FLAG (pFH441) (E. coli) (UniProt P0AEG4).
T1 sequence (looked up): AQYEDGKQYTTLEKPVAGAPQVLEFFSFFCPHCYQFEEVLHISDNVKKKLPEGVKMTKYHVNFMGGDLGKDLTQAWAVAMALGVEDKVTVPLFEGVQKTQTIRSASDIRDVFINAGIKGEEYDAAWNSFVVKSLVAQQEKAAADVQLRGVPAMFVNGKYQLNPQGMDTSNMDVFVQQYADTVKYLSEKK
The assay is described as follows: FIG. 4 legend; motility plates and immunoblots in E. coli FSH231.

B1: T7-tagged rat VKORc1ΔAAR, G60D lacking all nonessential cysteines (pFH436: rat VKORc1 C16A ΔA31AR G60D C85A C96A-linker-T7 tag) (enzyme)
chain: MGTTWRSPGRLRLALALAGLALSLYALHVKARNEDYRALCDVGTAISCSRVFSSRWDRGFGLVEHVLGADSILNQSNSIFGAMFYTIQLLLGALRGRWASILLILSSLVSVAGSLYLAWILFFVLYDFCIVCITTYAINAGLMLLSFQKVPEHKVKKPGTGGGSGGGSGS
notes: Expressed in E. coli FSH231 (ΔdsbB, yidCT362I, hslVC160Y); not shown: C-terminal T7 tag
Turning to B1, the binding entry is listed as “binds”.

(Values after patent publication US11319530B2, “Host cells and systems for membrane protein expression” (President and Fellows of Harvard College, priority 2015, dated 2022).)
